{
  "source": "patent US10080775B2",
  "about": "(CAREGEN CO., LTD., priority 2017, dated 2018)",
  "assay": "general procedure: peptide synthesis; chloro trityl chloride resin",
  "details": "whole synthesis",
  "note": "HELM strings list residues between dots; [ac] is acetyl, [am] amide, other brackets name non-standard units.",
  "data": [
    {"substance": "PEPTIDE1{[Valproyl].I.W.S.L.D.T.Q.Y.G.G.R.G.D}$$$$V2.0", "values": [
      {"measurement": "crude mass", "value": 0.8, "unit": "g"},
      {"measurement": "crude yield", "setting": "scale of the general procedure 700 mg resin", "value": 89.0, "unit": "%"}
    ]}
  ]
}
